The source of these data is US11135192B2, “Inhibitors for treating diseases characterized by atrial enlargement or remodeling” (Novartis AG, priority 2012, dated 2021).

This data set concerns patients with heart failure with preserved ejection fraction. Nature of the data set: Safety and tolerability (adverse events, target dose achieved) in the same HF-PEF study. Particulars: target LCZ696 200 mg twice daily or valsartan 160 mg twice daily.

On to `CCCCC(=O)N(Cc1ccc(-c2ccccc2-c2nnn[nH]2)cc1)[C@H](C(=O)O)C(C)C` [Valsartan, (S)—N-valeryl-N-{[2′-(1H-tetrazole-5-yl)-biphenyl-4-yl]-methyl}-valine, reference compound], for which the “Target dose achieved, percent of patients” value is 78%.
